# Reference: PubChem BioAssay AID686943 (Drosophila RNAi Screening Center, 2013)
# Assay: 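Search across the genome for regulators of signalling from receptor tyrosine kinase to ERK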 (primary screen)
# System: Drosophila S2R+ haemocyte-like cells expressing YFP-tagged ERK (Rolled)
# Reagents: long dsRNA against Drosophila genes
# Challenge: insulin stimulation versus unstimulated cells; dose and duration not given
# Measurement: 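Per-plate z-scores of phospho-ERK immunostaining normalised to YFP-tagged ERK, measured with and without insulin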
# Reading the numbers: replicate 1, z-score of dpERK with insulin: higher = more active ERK per ERK-YFP after insulin
# The screen tested about 23,000 reagents; this is a random part of those that have a named target and a result. 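Extra replicates exist only for a retested subset of genes; insulin dose and duration not given; both raised and lowered dpERK matter.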 A plus sign joins genes that one reagent is predicted to hit. Further read-outs or replicates are left out here. Not stated in the record: the amount of reagent, the time to read-out.
gene,dsRNA,"replicate 1, z-score of dpERK with insulin"
Gr39a,DRSC01841,-1.22
Gr39a,DRSC01842,-0.82
RfC3,DRSC03411,0.22
CG14659,DRSC12245,0.35
Acp53C14c,DRSC05626,-0.8
CG17974,DRSC04299,0.32
CG7631,DRSC01873,-0.06
CG33124,DRSC00298,1.17
Idgf5,DRSC06919,0.33
7SLRNA:CR42652 + 7SLRNA:CR32864,DRSC22968,1.7
CG44085,DRSC02922,-5.91
CG44085,DRSC02929,0.05
CG14877,DRSC15001,0.08
CG12995,DRSC19515,-0.81
Coq6,DRSC03040,0.14
Proc,DRSC03009,-7.23
Hr38,DRSC03345,0.01
ranshi,DRSC16564,0.39
CG1371,DRSC06409,0.79
moi + Tgs1,DRSC16371,-1.23
CG10962,DRSC18421,-0.26
Usp16-45,DRSC18352,-0.14
mRpL23,DRSC08307,0.79

Already shown: 4 of the entries above.
gene,dsRNA,"replicate 1, z-score of dpERK with insulin"
Gr39a,DRSC01842,-0.82
RfC3,DRSC03411,0.22
CG14659,DRSC12245,0.35
Acp53C14c,DRSC05626,-0.8
